PMC9251887

Assays:
[1] = biological target: Venus^N173-XopL (Xanthomonas campestris pv. vesicatoria); test: split reporter; bimolecular fluorescence complementation of Venus^N173 and Venus^C155 fusions, transient expression in N. benthamiana leaf epidermal cells, confocal microscopy
[2] = biological target: GFP-XopL (Xanthomonas campestris pv. vesicatoria); test: co-IP; transient expression in N. benthamiana leaves, 48 h; total proteins immunoprecipitated with GFP-Trap beads; immunoblot
[3] = biological target: MBP-XopL (Xanthomonas campestris pv. vesicatoria); test: pull-down; in vitro co-IP with E. coli produced recombinant MBP-XopL and GST-AtSH3P2; who was held is not told

B1: AtSH3P2-Venus^C155 (protein, UniProt Q8VWF1 1-368)
chain: MDAIRKQASRLREQVARQQQAVFKQFGGGGYGSGLADEAELNQHQKLEKLYISTRAAKHYQRDIVRGVEGYIVTGSKQVEIGTKLSEDSRKYGSENTCTNGNVLTRAALNYGRARAQMEKERGNMLKALGTQVAEPLRAMVLGAPLEDARHLAQRYDRMRQEAEAQATEVARRQAKARESQGNPDILMKLESAEAKLHDLKSNMTILGKEAASALASVEDQQQKLTLERLLSMVESERAYHQRVLQILDQLEGEMVSERQRIEAPSTPSSADSMPPPPSYEEANGVFASQMHDTSTDSMGYFLGEVLFPYHGVTDVELSLSTGEYVVVRKVTGSGWAEGECKGKAGWFPYGYIERRERVLASKVSEVF
binding [1]: binds

B2: AtSH3P2-HA (protein, UniProt Q8VWF1 1-368)
chain: B1 chain
binding [2]: binds

B3: GST-AtSH3P2 (protein, UniProt Q8VWF1 1-368)
chain: B1 chain
binding [3]: binds

No constants are given. Whether binding was seen depends on the method and setting. Binding seen in cells or lysates may run through a third protein. A result given as binding can be weak or reduced; the word gives no strength. For part of these data: Tags and fused reporters may be left off the sequences shown.
